Values of other authors as cited in US8153615B2, “Synthesis of glycerolipid carbamates and dicarbamates and their use as an antitumor compounds” (priority 2005, dated 2012).
At least one compound was matched to its structure with a doubt left.

How the values were obtained:
DU145 cells [1] = settings: Ashagbley et al., Anticancer Res. 16, 1813-1818; cited from earlier work
DU145 cells [2] = settings: under similar conditions; Ashagbley et al., Anticancer Res. 16, 1813-1818; read-out: IC50, inhibition of proliferation of DU145 cells; cited from earlier work

CCCCCCCCCCCCCCCCCCOCC(COP(=O)([O-])OCC[N+](C)(C)C)OC (centres unmarked) [ET-18-OCH3, 1-O-octadecyl-2-O-methyl-glycerophosphocholine]
concentration at which not toxic (loss of viability) (DU145 cells [1]): > 30 µM | IC50 (DU145 cells [2]): 14 µM
